No constants are given. Whether binding was seen depends on the method and setting. In cells and extracts the contact can be indirect. Some results given as binding are weak or reduced against the parent protein; the word gives no strength.
Biological target: Co-REST (human (endogenous in C33A)) (UniProt Q9UKL0)
Experiment: co-IP; C33A cells; immunoprecipitation with an antibody against LSD1 or Co-REST, immunoblotting with an antibody against HPV16 E7; protocol only by reference [58]

Chains of the proteins cited; added tags and fusions are not shown. Lines headed by an entry give the natural chain unless they say otherwise; changes in a name come on top.
UniProt Q9UKL0: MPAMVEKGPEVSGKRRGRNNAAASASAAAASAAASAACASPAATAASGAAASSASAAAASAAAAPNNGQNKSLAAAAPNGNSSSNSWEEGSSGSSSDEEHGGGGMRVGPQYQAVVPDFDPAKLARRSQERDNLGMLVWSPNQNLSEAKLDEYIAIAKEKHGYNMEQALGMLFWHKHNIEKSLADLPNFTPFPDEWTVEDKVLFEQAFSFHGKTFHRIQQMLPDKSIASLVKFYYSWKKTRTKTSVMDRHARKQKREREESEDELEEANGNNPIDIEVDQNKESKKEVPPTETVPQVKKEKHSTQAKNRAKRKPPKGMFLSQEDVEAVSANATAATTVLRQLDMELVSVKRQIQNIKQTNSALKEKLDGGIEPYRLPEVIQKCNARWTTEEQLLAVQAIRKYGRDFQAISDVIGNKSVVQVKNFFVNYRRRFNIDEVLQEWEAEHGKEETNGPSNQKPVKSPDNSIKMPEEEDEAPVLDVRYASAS
UniProt P03129: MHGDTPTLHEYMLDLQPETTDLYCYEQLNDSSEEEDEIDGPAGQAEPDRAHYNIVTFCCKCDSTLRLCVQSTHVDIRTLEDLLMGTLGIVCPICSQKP

Q: Which binding does the source give for HPV16 E7 (from UniProt P03129 1-98) here?
A: binds
